Values of other authors in US7498303B2, “GNRH analogues for treatment of urinary incontinence” (priority 2000, dated 2009).
Counter-ions that a name gives are not always drawn. Some entries share one result that the patent states for a list of compounds. At least one structure is not confirmed: it was looked up by name or label, or the drawing left a doubt.

System: urinary incontinence of the bitch
Conditions: 1.5 mg/kg BW p.o., given every 8 hours; cited from earlier work

SMILES: CN[C@@H](C)[C@H](O)c1ccccc1 [ephedrinhydrochloride]
- Showed some improvement: at least 24%

SMILES: CC(N)C(O)c1ccccc1 (centres unmarked) [phenylpropanolamine]
- Showed some improvement: at least 24%
